Assay results taken from PubChem BioAssay AID602313 (National Center for Advancing Translational Sciences (NCATS), 2012).
Hit rate of the full screen: of about 390,000 compounds, about 760 (0.19%) were called active. The shares of active, inactive and inconclusive entries below differ from those in the screen. Calls come from the whole dose curve; as a rule, active = well fitted inhibition curve with a large enough effect; inconclusive = small, poorly fitted or top-dose-only effect; inactive = flat fitted curve, though single readings scatter. Where the call is inconclusive, the potency comes from a doubtful curve fit.

Assay: qHTS for Inhibitors of Vif-A3F Interactions: qHTS; note: nearly all actives have a fitted effect of over 65% in size
Conditions: HeLa A3F-eYFP + Vif (tagged APOBEC3F with the HIV-1 protein that degrades it), YFP fluorescence increase; series mostly up to 46.1 µM
Method in brief: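 HeLa cells stably expressing A3F-eYFP plus Vif, plated and incubated overnight at 37 deg C, then exposed to compounds overnight at 37 deg C. Blocked degradation read as raised yellow fluorescence (Ex 488/Em 500-530).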
Potency is the fitted concentration of half-maximal effect.

Row | SMILES | Potency
1 | CCN(c1ccccc1)S(=O)(=O)c1ccc2[nH]c(=O)[nH]c2c1 | inconclusive: 35.5 µM [inhibitor, single point]
2 | CCOc1ccc(NC(=O)COC(=O)c2cc([N+](=O)[O-])ccc2N2CCOCC2)cc1 | inconclusive: 5.62 µM [inhibitor, single point]
3 | COc1ccc(Cc2c(O)nc(SCC(=O)N3CCOCC3)[nH]c2=O)cc1 | inconclusive: 35.5 µM [inhibitor, single point]
4 | CC(C)N(Cc1ccccc1)C(=S)NC1CCCCC1 | inconclusive: 35.5 µM [inhibitor, single point]
5 | CCCCOc1ccccc1C1CC(=O)NC2=C1C(=O)CCC2 (centres undefined) | inactive
6 | O=C(NCc1nc2ccccc2[nH]1)c1cccc(Cl)c1 | inactive
7 | O=C(CSc1nc2ccsc2c(=O)n1-c1ccc(Br)cc1)NCc1ccccc1 | inactive
8 | Cc1ccc(O)c(C(=O)c2cnc3c(c2)CN(C)C(=O)N3)c1 | inconclusive: 10 µM [inhibitor, partial curve, poor fit]
9 | CCOc1ccc(CNC(=O)CCn2c(=O)c3cccn3c3ccc(F)cc32)cc1 | inactive
10 | COc1ccc2c(-c3ccccc3)cc(SCC(N)=O)nc2c1 | inconclusive: 28.2 µM [inhibitor, single point]
11 | CCN1CC=C2C(C1)C(c1ccc(Cl)s1)C(C#N)=C(N)C2(C#N)C#N (centres undefined) | inconclusive: 12.6 µM [inhibitor, partial curve, poor fit]
12 | Cc1ccc(C(=O)NCC(=O)Nc2ccncc2)cc1C | inactive
13 | COc1ccc(CNCCC(c2ccc(F)cc2)c2ccc(OC)cc2)cc1 (centres undefined) | inconclusive: 35.5 µM [inhibitor, single point]
14 | S=C(Nc1ccccc1)Nn1cnnc1 | inactive
15 | CN(C)C(=O)CCSc1nnc(-c2ccco2)o1 | inconclusive: 10 µM [inhibitor, partial curve, poor fit]
16 | N/C(=N\OC(=O)c1cc([N+](=O)[O-])ccc1Cl)c1ccccn1 | inconclusive: 14.1 µM [inhibitor, single point]
17 | CCOc1cc(Br)c(/C=C2/C(=O)N(C)C(=S)N2CC(=O)OC)cc1OC | inconclusive: 35.5 µM [inhibitor, single point]
18 | Cc1ccccc1Oc1cc(-n2ncc(Cl)c(Cl)c2=O)ncn1 | inconclusive: 0.631 µM [inhibitor, full curve, poor fit]
19 | c1ccc2c(NC3C4CC5CC(C4)CC3C5)nc(N3CCOCC3)nc2c1 (centres undefined) | inconclusive: 31.6 µM [inhibitor, single point]
20 | O=C1N/C(=N\S(=O)(=O)c2ccccc2)S/C1=C\c1cc([N+](=O)[O-])ccc1O | inconclusive: 15.8 µM [inhibitor, single point]
21 | CCC(CC)COC(=O)C1=C(C)NC(=O)NC1c1ccccc1Br (centres undefined) | inconclusive: 35.5 µM [inhibitor, single point]
22 | COc1cc(/C=C2\SC(=Nc3ccccc3)N(CCc3c[nH]c4ccccc34)C2=O)ccc1OC(C)C(=O)O (centres undefined) | inactive
23 | CC1CCC(C(C)C)C(OC(=O)Cn2c(-c3ccccc3)[n+](C)c3ccccc32)C1 (centres undefined) | inconclusive: 7.94 µM [inhibitor, partial curve, poor fit]

Rewritten in markdown: part of the list above

| Row | SMILES | Potency |
| --- | --- | --- |
| 3 | COc1ccc(Cc2c(O)nc(SCC(=O)N3CCOCC3)[nH]c2=O)cc1 | inconclusive: 35.5 µM [inhibitor, single point] |
| 4 | CC(C)N(Cc1ccccc1)C(=S)NC1CCCCC1 | inconclusive: 35.5 µM [inhibitor, single point] |

Later entries:

Row | SMILES | Potency
24 | S=C1SCN(Cc2cccs2)CN1Cc1cccs1 | inconclusive: 2.51 µM [inhibitor, partial curve, poor fit]
25 | Cc1ccc(-c2noc(-c3ccccc3NC(=O)C3CC(=O)N(c4cccc(C)c4)C3)n2)cc1 (centres undefined) | inactive
26 | COc1ccc(NC(=S)c2ccc3ccccc3n2)cc1 | inconclusive: 17.8 µM [inhibitor, partial curve, poor fit]
27 | Cc1cc(/C=C\c2ccccc2)nc2ccccc12 | inactive
28 | O=[N+]([O-])c1ccc(S(=O)(=O)Nc2ccncc2)cc1 | inactive
29 | O=C(COc1ccc(Cl)cc1Cl)NC(=S)N1CCCc2ccccc21 | inactive
30 | CCOC(=O)c1ccc(NC(=O)c2c(NC(=O)CCC(=O)O)sc3c2CCCCC3)cc1 | inactive
31 | Cc1cc(/C=C(\C#N)C(=O)NCc2cccs2)c(C)[nH]1 | inconclusive: 25.1 µM [inhibitor, single point]
32 | CSCCOC(=O)COc1ccc(/C=N/NC(=O)c2nn(C)cc2Cl)cc1 | inactive
33 | Cc1cccc(C)c1NC(=O)CN(C)C(=O)c1cccc(S(=O)(=O)N2CCN(c3ccccc3)CC2)c1 | inconclusive: 2.51 µM [inhibitor, partial curve, poor fit]
34 | CC(C)n1c(SCC(=O)NCc2ccco2)nc2c1c(=O)n(C)c(=O)n2C | inactive
35 | O=C(O)c1ccc(/C=C(\c2nc3ccccc3[nH]2)c2nc3ccccc3s2)cc1 | inactive
36 | O=C(NCC1CCCO1)c1cc2ccccc2cc1O (centres undefined) | inconclusive: 11.2 µM [inhibitor, partial curve, poor fit]
37 | Cn1nccc1C(=O)N/N=C/c1c(O)ccc2ccccc12 | inconclusive: 6.31 µM [inhibitor, single point]
38 | Cc1nc2cc(C(=O)OCC(=O)NC34CC5CC(CC(C5)C3)C4)ccc2n1-c1ccccc1 | inconclusive: 35.5 µM [inhibitor, single point]
39 | Fc1ccc(CNC(=S)NC2CCCCC2)cc1 | inconclusive: 35.5 µM [inhibitor, single point]
40 | Cc1c(C(c2ccc(O)cc2)c2c(C)n(C)n(-c3ccccc3)c2=O)c(=O)n(-c2ccccc2)n1C | inconclusive: 1.26 µM [inhibitor, full curve, poor fit]
41 | COc1ccc(NC(=S)NC2CC3CCC2C3)c(OC)c1 (centres undefined) | inconclusive: 22.4 µM [inhibitor, single point]
42 | O=c1oc2cc(O)ccc2s1 | inconclusive: 35.5 µM [inhibitor, single point]
43 | CCc1cccc(NC(=O)c2cc3c(=O)[nH]c4ccccc4c3n2C)c1 | inactive
44 | Cc1ccc(N(CC(=O)NC2CCCCC2)C(=O)c2ccc(C)s2)cc1 | inactive
45 | COc1cc(/C=C(\C#N)C(=O)NCCc2ccccc2)cc(OC)c1O | inconclusive: 22.4 µM [inhibitor, partial curve, poor fit]
46 | CN1C(=O)c2cccc3c(S(=O)(=O)Nc4ccccc4F)ccc1c23 | inactive

Row | SMILES | Potency
47 | O=C(NC(=S)NCc1ccccc1)c1cccs1 | inconclusive: 12.6 µM [inhibitor, single point]
48 | O=C(Nc1nnc(SCc2ccccn2)s1)C1CC(=O)N(c2ccc(F)cc2)C1 (centres undefined) | inconclusive: 35.5 µM [inhibitor, single point]
49 | Cn1c(N)c(C(=O)CCl)c(=O)n(Cc2ccccc2)c1=O | inactive
50 | CCc1ccc(NC(=O)c2ccc3c(=O)n4nc(Nc5ccccc5C)sc4nc3c2)cc1 | inconclusive: 22.4 µM [inhibitor, single point]
51 | O=c1c2c([nH]c3ccc(Br)cc13)CCCC2 | inactive
52 | CCc1cc2c(=O)[nH]c(-c3ccccn3)nc2s1 | inactive
53 | CCN(C(=O)c1c(C)cc(=O)oc1C)c1ccc2c(c1)OCO2 | inactive
54 | Cc1ccc(C(=O)Nc2sc(Cc3ccc4c(c3)OCO4)c(C)c2C(N)=O)cc1 | inconclusive: 8.91 µM [inhibitor, partial curve]
55 | COc1ccc(N(CC(=O)Nc2c(C)n(C)n(-c3ccccc3)c2=O)S(=O)(=O)c2ccc(F)cc2)cc1 | inconclusive: 1.26 µM [inhibitor, partial curve, poor fit]
56 | CCN1CCN(C(c2ccc(C(F)(F)F)cc2)c2ccc3cccnc3c2O)CC1 (centres undefined) | inactive
57 | Cc1occc1-c1nnc(SCC(=O)c2ccc(F)cc2)o1 | inconclusive: 5.62 µM [inhibitor, single point]
58 | Cc1cc(Br)ccc1NC(=O)CNC(=O)CNc1cccc([N+](=O)[O-])c1 | inconclusive: 3.55 µM [inhibitor, partial curve, poor fit]
59 | COc1ccc(C(=O)NC(=S)Nc2ccccc2N2CCOCC2)cc1Br | inconclusive: 35.5 µM [inhibitor, single point]
60 | COc1ccc(CCNC(=O)COc2ncnc3ccccc23)cc1OC | inconclusive: 0.355 µM [inhibitor, full curve, poor fit]
61 | COc1ccc(C=O)cc1CN1CCCN(Cc2ccccc2F)S1(=O)=O | inconclusive: 2.24 µM [inhibitor, single point]
62 | O=C(NNC(=O)c1ccc([N+](=O)[O-])cc1C(=O)O)c1ccncc1 | inconclusive: 35.5 µM [inhibitor, partial curve, poor fit]
63 | CCCCN(C(=O)Cc1ccc(S(=O)(=O)N2CCOCC2)s1)c1c(N)n(CC(C)C)c(=O)[nH]c1=O | inconclusive: 22.4 µM [inhibitor, single point]
64 | CC(C)(C#CCN1CCCCC1)OCCOC(c1ccccc1)c1ccccc1 | inconclusive: 20 µM [inhibitor, single point]
65 | CCc1ccc(NC(=O)CSc2ccnc(=O)[nH]2)cc1 | inconclusive: 6.31 µM [inhibitor, single point]
66 | CCOc1cc(/C=C2\CCC/C(=C\c3cc(Cl)c(O)c(OCC)c3)C2=O)cc(Cl)c1O | inconclusive: 3.98 µM [inhibitor, single point]
67 | CCN(CC)c1ccc(C=NNc2ccc([N+](=O)[O-])cn2)cc1 | active: 3.55 µM
68 | CCN(CC(=O)Nc1cc(C)nn1-c1nc(C)cc(C)n1)Cc1ccccc1 | inconclusive: 35.5 µM [inhibitor, single point]
69 | Cc1nn(-c2ccccc2)c(N)c1N=Nc1cccc(S(=O)(=O)N2CCOCC2)c1 | inconclusive: 17.8 µM [inhibitor, single point]
